This passage reports Ki results from BindingDB's records for doi:10.1007/s00210-004-0951-4 (Vernalis Research, 2004).

The chains behind the UniProt entries cited, without tags or fusion partners.
UniProt P41595, whole entry: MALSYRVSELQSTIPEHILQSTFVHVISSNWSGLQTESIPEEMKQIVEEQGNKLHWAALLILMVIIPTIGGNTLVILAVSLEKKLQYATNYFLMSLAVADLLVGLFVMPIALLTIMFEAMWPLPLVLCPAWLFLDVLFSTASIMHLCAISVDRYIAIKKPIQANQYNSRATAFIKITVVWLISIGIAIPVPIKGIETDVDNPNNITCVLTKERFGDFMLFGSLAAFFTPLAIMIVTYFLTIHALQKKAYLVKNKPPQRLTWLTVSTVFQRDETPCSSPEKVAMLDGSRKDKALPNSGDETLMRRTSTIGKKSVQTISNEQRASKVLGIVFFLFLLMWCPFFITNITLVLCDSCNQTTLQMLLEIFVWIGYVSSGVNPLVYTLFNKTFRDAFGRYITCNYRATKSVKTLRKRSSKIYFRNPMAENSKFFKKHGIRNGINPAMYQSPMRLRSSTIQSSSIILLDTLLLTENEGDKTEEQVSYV

Structures are written as SMILES.

The assay addresses 5-hydroxytryptamine receptor 2B (Homo sapiens, UniProt P41595).

As for `CC[C@@H](CO)NC(=O)[C@@H]1C=C2c3cccc4c3c(cn4C)C[C@H]2N(C)C1`, the affinity corresponds to a Ki of 0.36 nM.
